# The supplement of paper PMC3334620
# In all, about 33,000 sequences were measured (“E-score (-0.5 to 0.5)”: median about -0.015, highest 2% from about 0.3 on). This is one part of the list.
# Target: T1, Abf1 (UniProt P14164)
# T1 sequence: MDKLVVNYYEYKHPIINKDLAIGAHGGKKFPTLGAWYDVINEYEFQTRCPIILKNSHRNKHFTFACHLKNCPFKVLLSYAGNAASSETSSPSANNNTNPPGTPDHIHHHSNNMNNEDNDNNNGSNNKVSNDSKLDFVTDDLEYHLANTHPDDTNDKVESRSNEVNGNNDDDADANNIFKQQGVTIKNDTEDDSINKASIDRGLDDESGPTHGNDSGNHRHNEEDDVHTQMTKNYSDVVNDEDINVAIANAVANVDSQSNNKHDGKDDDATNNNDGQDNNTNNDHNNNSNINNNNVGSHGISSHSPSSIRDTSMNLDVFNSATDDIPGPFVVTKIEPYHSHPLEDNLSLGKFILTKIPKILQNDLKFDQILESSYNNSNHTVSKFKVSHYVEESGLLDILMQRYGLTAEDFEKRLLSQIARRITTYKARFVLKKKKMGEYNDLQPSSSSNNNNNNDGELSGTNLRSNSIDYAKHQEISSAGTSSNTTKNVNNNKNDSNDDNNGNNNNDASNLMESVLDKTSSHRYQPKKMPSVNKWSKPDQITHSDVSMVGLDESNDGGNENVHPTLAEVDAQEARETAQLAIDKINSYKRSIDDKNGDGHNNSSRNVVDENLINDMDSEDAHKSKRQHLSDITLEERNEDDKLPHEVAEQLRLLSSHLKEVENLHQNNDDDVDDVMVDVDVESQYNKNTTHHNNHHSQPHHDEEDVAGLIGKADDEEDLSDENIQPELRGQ
# Assay: PBM E-score (8-mer binding enrichment) (E-score (-0.5 to 0.5)); higher = stronger / more preferred TF binding
# Conditions: protein concentration: 200 nM; construct: GST-full length
# Method: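 Universal 'all 10-mer' protein binding microarrays (Agilent AMADID 015681) probed with GST-tagged S. cerevisiae TFs (full-length or DBD) made by in vitro transcription/translation (PURExpress), about 100-200 nM. Bound TF was detected with fluorescent anti-GST. Each ungapped 8-mer (which stands for itself and its reverse complement) is scored by the PBM enrichment score (E-score), a modified Wilcoxon-Mann-Whitney statistic from -0.5 to +0.5, computed with the Universal PBM Analysis Suite. Scale: above 0.35 generally sequence-specific binding.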
row,Sequence,PBM E-score
1,GCTTGGCC,-0.0864
2,CATCACTC,0.385
3,TCAGCCCA,0.00832
4,GAAGCCTA,-0.00417
5,GATCAAAC,-0.0256
6,AGTGAGCC,-0.0656
7,AGTTGACG,0.16
8,CACTAACA,-0.0249
9,ATCGTCAT,0.349
10,ACACGAAC,0.268
11,CGTTTCAC,0.0723
12,CGGGGCAA,-0.0557
13,CCTTCAAC,-0.146
14,CCCGTACG,0.348
15,CCTGCCTC,-0.11
16,ACGACTGG,-0.0237
17,CAGGATCC,-0.143
18,AGACTATA,0.14
19,AATTTCCT,-0.00613
20,CGACGTCA,0.123
21,CAATTAAA,0.0121
22,AGTAAACC,-0.0876
23,TTAGAGAA,-0.155
24,CACGGACG,0.337
25,CGCTTGCC,-0.0145

row,Sequence,PBM E-score
1,ATGCCTCC,-0.243
2,CCCTCAGA,-0.0913
3,CGGACACA,-0.101
4,ACCGAAGT,-0.00667
5,GGGAGGAC,-0.108
6,AATAGTCC,-0.159
7,GAACCCCC,-0.405
8,CGAATTCC,-0.0103
9,AGTCCCAC,-0.232
10,GAGCATAC,0.109
11,ACAACCAA,0.178
12,AAAGCTTA,-0.0456
13,TCACTTCA,0.21
14,CGAAATAA,0.17
15,GCAACAAC,0.124
16,ATGCAATA,-0.0124
17,GCCTGGCA,-0.344
18,AATAAAAT,0.2
19,ATCTCCAC,0.0493
20,AGCACCGG,-0.224
21,GGTGTAGA,-0.0583
22,AGACATCT,0.11
23,AGCATCCT,-0.21
24,AAGCGTTC,-0.219
25,GATTCCCA,-0.0251

row,Sequence,PBM E-score
1,ATTAGTCC,-0.0426
2,AAGACACC,-0.179
3,AAACTAAC,0.0188
4,AGACAACA,-0.111
5,TCTCTCAA,0.0685
6,ACAAATAT,0.104
7,GGAGCGTA,0.0134
8,ACTCGTTA,0.0993
9,AGGTTTGA,-0.188
10,AAGAGGAA,-0.0719
11,CTGGTAAG,-0.022
12,ACATATTA,0.233
13,TCAGCGCA,0.0776
14,ATGTGTGG,-0.0528
15,GATGCGCA,0.0666
16,GGCGGTAC,0.0588
17,AACCGATT,0.0401
18,CGAACCAC,-0.0685
19,AGTGCTCC,-0.0728
20,AGAATCAG,-0.0824
21,GAGTAATC,0.00056
22,GCTGGACC,-0.246
23,AAAATGTT,0.134
24,GTAAATCA,0.263
25,ATGTATCA,0.267

row,Sequence,PBM E-score
1,GACTGCTC,-0.108
2,CGGAACAG,-0.026
3,GAAGCCGC,0.0771
4,TCCCACCA,-0.167
5,GATAGCAC,0.00749
6,CAGGCATA,0.0594
7,GGGACGGA,-0.0422
8,AAGTACGA,0.151
9,CACACTAA,0.0798
10,ACTCGTAT,0.305
11,AGAGACCC,-0.221
12,AGGCTGAA,-0.0655
13,GTGAGCGA,0.13
14,CAGGAGCG,0.0108
15,CCGTCTCC,-0.0673
16,AAGGGTGA,0.0177
17,GACCGTGC,0.108
18,GAGCGAAA,0.172
19,CCCAGACC,-0.232
20,CGAGTCCA,-0.247
21,ACTTAACT,-0.0639
22,CAATGGAC,0.16
23,CTCGGGCC,-0.183
24,CTGGGCTC,-0.261
25,CCGCCCAG,-0.142

row,Sequence,PBM E-score
1,GACTGCTA,-0.2
2,ACTGCATA,-0.0281
3,ATTTAGCG,0.0162
4,ACCACAAC,-0.0325
5,GCCGAAGA,0.0287
6,GGGGCAAA,-0.098
7,AAATGCCT,-0.0261
8,GACATGTA,0.17
9,CATCTAAA,-0.0455
10,ACTGCAAC,-0.129
11,GCCTAGCA,-0.156
12,AATATCCT,-0.0411
13,GTCCATAA,-0.0217
14,ATCCGGTC,-0.147
15,CCGGTCAG,-0.196
16,AGCGCCCA,-0.195
17,GAAGTGAA,0.064
18,GTCCGCTA,-0.0723
19,ACTAGGTG,-0.211
20,ATCTTACC,0.115
21,GCATAGGA,-0.0459
22,ATCTCCCA,0.115
23,GCGCATAA,0.0993
24,ATTAGGTA,0.113
25,GCGCCGCA,0.0535

# A second format for part of the listing above:
row | Sequence | PBM E-score
2 | CGGAACAG | -0.026
3 | GAAGCCGC | 0.0771
4 | TCCCACCA | -0.167
5 | GATAGCAC | 0.00749
6 | CAGGCATA | 0.0594
7 | GGGACGGA | -0.0422
8 | AAGTACGA | 0.151
9 | CACACTAA | 0.0798
10 | ACTCGTAT | 0.305
11 | AGAGACCC | -0.221
12 | AGGCTGAA | -0.0655
13 | GTGAGCGA | 0.13
14 | CAGGAGCG | 0.0108
15 | CCGTCTCC | -0.0673
16 | AAGGGTGA | 0.0177
17 | GACCGTGC | 0.108
18 | GAGCGAAA | 0.172
19 | CCCAGACC | -0.232
20 | CGAGTCCA | -0.247
21 | ACTTAACT | -0.0639
22 | CAATGGAC | 0.16
23 | CTCGGGCC | -0.183
24 | CTGGGCTC | -0.261
25 | CCGCCCAG | -0.142
1 | GACTGCTA | -0.2
2 | ACTGCATA | -0.0281
3 | ATTTAGCG | 0.0162
4 | ACCACAAC | -0.0325
5 | GCCGAAGA | 0.0287
6 | GGGGCAAA | -0.098
7 | AAATGCCT | -0.0261
8 | GACATGTA | 0.17
9 | CATCTAAA | -0.0455
10 | ACTGCAAC | -0.129
11 | GCCTAGCA | -0.156
12 | AATATCCT | -0.0411
13 | GTCCATAA | -0.0217
14 | ATCCGGTC | -0.147
15 | CCGGTCAG | -0.196
16 | AGCGCCCA | -0.195
17 | GAAGTGAA | 0.064
18 | GTCCGCTA | -0.0723
19 | ACTAGGTG | -0.211
20 | ATCTTACC | 0.115
21 | GCATAGGA | -0.0459
22 | ATCTCCCA | 0.115
23 | GCGCATAA | 0.0993
24 | ATTAGGTA | 0.113
25 | GCGCCGCA | 0.0535

# Following part

row,Sequence,PBM E-score
1,CCGCGGCC,0.0472
2,CGCTGCCG,-0.0244
3,TAACTAAA,-0.0174
4,GACGGGCC,-0.0134
5,CAGAGTAC,0.0802
6,ACGTCTTA,0.223
7,GCTAAAAA,0.0945
8,AGAATCTG,-0.0507
9,CACGCATA,0.0214
10,CAACGCTG,-0.18
11,TGCCTAAA,-0.143
12,AGCGTTTA,-0.153
13,CTGCAGGA,0.0199
14,CATACACG,0.181
15,AATAGCGT,0.0567
16,TCCGAGAA,0.0043
17,GAATGACA,0.311
18,GTAAGCGA,0.135
19,CCATAAAC,0.0167
20,CAGGTAAG,-0.0344
21,CGAGCTCA,0.00045
22,AGGCGGTA,-0.0876
23,AAGAATGT,0.199
24,CGACCCGA,-0.165
25,CCAGGCGG,-0.284

row,Sequence,PBM E-score
1,AGACGCGC,-0.103
2,GGTCCCAC,-0.137
3,GGGTGGCA,-0.095
4,AGGTCGAA,-0.0499
5,GGTTACGA,0.0663
6,ATGGGGTG,-0.064
7,CAGCGAAA,-0.136
8,CACTTTAC,-0.0137
9,ATTAAGGC,0.0843
10,CGTCTAAC,0.225
11,CTAATCAA,0.025
12,AGGACGCC,-0.078
13,CCCTTTCA,-0.148
14,GTGGCCTA,-0.143
15,ATTACAAG,0.103
16,CACGGGGA,-0.137
17,ACATTATA,0.0936
18,CTCTTCCA,-0.0292
19,GCTAATAC,0.0155
20,CCGTATCA,0.28
21,ATGAATCA,0.103
22,GACAAGTC,0.0377
